Experimental findings from PubChem BioAssay AID662 (National Center for Advancing Translational Sciences (NCATS), 2007) are described below.

This is one part of the list. Shown are side measurements of this screen, not its main read-out; they come without a call. The list favours compounds with an active or inconclusive main result. Words in brackets tell the shape of the fitted curve; partial curves, single points and poor fits give uncertain potencies.

The experiment in a line: Cell signaling CRE-BLA (Fsk stim). The note with it: CHO CRE-bla reporter (cAMP response element driving beta-lactamase), forskolin EC10, beta-lactamase ratio; measured here: 460 nm blue channel. The method in brief:
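Using CellSensor CRE-bla CHO cells in Opti-MEM with 0.5% dialyzed FBS, compounds were titrated with EC10 NKH 477 for 3 h at 37 °C. CCF4 ratio (460/530 nm) gave %Activity; AC50 derived.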
By AC50 is commonly meant the concentration at which the activity in the assay is half-maximal. On to `CCc1nc2ccccc2n(CCOCCOCCn2c(=O)c(CC)nc3ccccc32)c1=O`, for which the AC50 is 5.01 µM [rising, full curve]. Next, `O=C(Oc1ccc2c(c1)OCO2)c1cccs1`: 5.01 µM [falling, single point]. The result for `CCCCCCN1Cc2ccccc2C1` reads 25.1 µM [rising, single point]; that for `COc1cccc(Cn2c(=O)cnc3cnc(N4CCN(C)CC4)nc32)c1`, 20 µM [rising, single point]; that for `COC(=O)[C@@]1(Cc2ccc(F)cc2)[C@H]2c3cc(C(=O)N(C)C)n(Cc4ccc(OC(F)(F)F)cc4)c3C[C@H]2CN1C(=O)c1ccccc1`, 5.01 µM [falling, single point].

With `CC(=O)O[C@H]1C(=O)[C@]2(C)[C@H]([C@H](OC(=O)c3ccccc3)[C@@]3(O)C[C@H](OC(=O)[C@@H](O)[C@@H](NC(=O)c4ccccc4)c4ccccc4)C(C)=C1C3(C)C)[C@]1(OC(C)=O)CO[C@@H]1C[C@@H]2O`, the AC50 was 31.6 µM [falling, single point]. Next, `CN(C)c1nc(N)nc(CSc2n[nH]c(-c3ccccc3)n2)n1`: 3.98 µM [rising, partial curve]. Next, `CCOC(=O)c1oc2ccccc2c1NC(=O)c1ccccc1OC`: 2.51 µM [rising, partial curve]; `CC1Cc2ccccc2N1S(=O)(=O)c1ccc2c(c1)n(C)c(=O)c(=O)n2C` (stereo not given): 1.26 µM [falling, single point]. Next, `Cc1ccc(CNC(=O)Nc2ccccc2)cc1`: 0.00794 µM [falling, full curve, poor fit]; `CC(=O)c1ccc(Nc2cc(C)nc3nc(C)nn23)cc1`: 12.6 µM [rising, partial curve]; `Cc1ccccc1Cn1c(-c2cncs2)nc2ccccc21`: 5.01 µM [rising, partial curve]. Turning to `CCOC(=O)c1[nH]c(=O)[nH]c1CSc1nc(C)cc(C)n1`, the half-maximal activity concentration (AC50) is 1 µM [falling, full curve, poor fit]. As to `COC(=O)C1=C(N)N(c2ccc(F)cc2)C2=C(C(=O)CCC2)C1c1ccc2c(c1)OCO2` (stereo not given), the AC50 was 12.6 µM [rising, single point]. Take `O=C(COc1ccc2ccccc2c1CN1CCOCC1)N1CCc2ccccc21`: the concentration at half-maximal activity (AC50) is 0.0794 µM [falling, full curve, poor fit]. Next, `CCCC(c1nnnn1C(C)(C)CC)N(Cc1ccco1)Cc1cc2ccc(OC)cc2[nH]c1=O` (stereo not given): 10 µM [rising, single point]; `CN(CC(=O)Nc1ccc(Cl)cc1)S(=O)(=O)c1cccc2cccnc12`: 10 µM [falling, single point]. Next, `CCOc1ccccc1C(=O)NCC(=O)OCC(=O)N1C(C)CCCC1C` (stereo not given): 12.6 µM [rising, partial curve]; `CCNc1ncc2nc(CCc3ccccc3)c(=O)n(Cc3ccc(F)cc3)c2n1`: 2.51 µM [rising, partial curve]; `O=C1c2c(O)ccc([N+](=O)[O-])c2C(=O)c2c([N+](=O)[O-])ccc(O)c21`: 25.1 µM [falling, partial curve]. Next, `Cc1oc2nc(SCCCC(=O)NCCO)nc(N)c2c1C`: 0.0501 µM [rising, full curve, poor fit]; `O=C(CCC(=O)N1CCc2ccccc2C1)N1CCN(S(=O)(=O)c2ccccc2)CC1`: 3.16 µM [falling, partial curve]. With `c1ccc(CN2CCN(c3nc(-c4ccccc4)nc(-n4ccnc4)n3)CC2)cc1`, the AC50 is 2.51 µM [rising, full curve, poor fit]. The result for `O=C(Cc1c[nH]c2ccccc12)NCc1ccc2c(c1)OCO2` reads 7.94 µM [falling, partial curve]; that for `CCC(=O)N1CCc2cc(Br)cc(S(=O)(=O)C3(C(=O)OC)CC3)c21`, 25.1 µM [rising, single point]; that for `Cc1nnc(SCC(=O)N2CCC(c3noc4ccc(F)cc34)CC2)s1`, 3.98 µM [falling, partial curve]. Next, `CCN1C(=O)c2cccc3c(S(=O)(=O)Nc4ncccc4C)ccc1c23`: 10 µM [rising, partial curve]; `COC(=O)C[C@](O)(CCCC(C)(C)O)C(=O)O[C@@H]1C(OC)=C[C@]23CCCN2CCc2cc4c(cc2[C@H]13)OCO4`: 1 µM [falling, full curve]; `COC(=O)c1oc2nc(C)cc(C)c2c1N`: 25.1 µM [rising, single point]. The result for `COc1ccc(N2CCN(Cc3nc4c(c(=O)[nH]c(=O)n4C)n3CCCc3ccccc3)CC2)cc1` reads 10 µM [rising, partial curve]. Regarding `COc1ccc(C2CC(c3cc(Br)ccc3F)n3nnnc3N2)cc1` (stereo not given), the AC50 was 15.8 µM [rising, single point]. The result for `CCOc1ccc2nc(NC(=O)C(NS(=O)(=O)c3cccs3)C(C)C)sc2c1` (stereo not given) reads 10 µM [rising, partial curve]; that for `O=C(COC(=O)c1ccccc1Oc1ccccc1)NC1CCS(=O)(=O)C1` (stereo not given), 1.26 µM [falling, full curve]; that for `Cc1ccccc1OCCC(=O)Nc1c(C)n(C)n(-c2ccccc2)c1=O`, 0.00316 µM [falling, full curve, poor fit]. Next, `COc1ccc(C2/C(=C(/O)c3ccccc3)C(=O)C(=O)N2CCN2CCOCC2)c(OC)c1` (stereo not given): 3.98 µM [falling, single point]; `CCn1c(N)c(C(=O)Nc2ccccc2C(=O)OC)sc1=S`: 7.94 µM [rising, partial curve]. As to `Cc1nc2nc(C)c(CCC(=O)N3CCOCC3)c(C)n2n1`, the AC50 was 0.631 µM [falling, full curve, poor fit].

Take `COc1ccc(-c2noc(CCC(=O)Nc3cccc(C)c3)n2)cc1`: the half-maximal activity concentration (AC50) is 6.31 µM [falling, partial curve, poor fit]. Next, `COc1ccc(Oc2ncc3nc(-c4cn(C)c5ccccc45)c(=O)n(CCC#N)c3n2)cc1`: 2 µM [rising, full curve]. The result for `C=CCSc1nc(N)c2c(C)c(C)sc2n1` reads 0.501 µM [rising, partial curve].
